Measured values published in paper PMC10110396.
Where a chain is given by its changes, count along the chain named. No constants are given. Whether binding was seen depends on the method and setting. In cells and extracts the contact can be indirect. Some binding calls cover weakened binding; strength is not graded here. Sequences can lack the tags named with a protein.

T1: lysosome-associated membrane protein-1 (LAMP-1), endogenous (human (endogenous in HEK293T)) (UniProt P11279)
T1 sequence: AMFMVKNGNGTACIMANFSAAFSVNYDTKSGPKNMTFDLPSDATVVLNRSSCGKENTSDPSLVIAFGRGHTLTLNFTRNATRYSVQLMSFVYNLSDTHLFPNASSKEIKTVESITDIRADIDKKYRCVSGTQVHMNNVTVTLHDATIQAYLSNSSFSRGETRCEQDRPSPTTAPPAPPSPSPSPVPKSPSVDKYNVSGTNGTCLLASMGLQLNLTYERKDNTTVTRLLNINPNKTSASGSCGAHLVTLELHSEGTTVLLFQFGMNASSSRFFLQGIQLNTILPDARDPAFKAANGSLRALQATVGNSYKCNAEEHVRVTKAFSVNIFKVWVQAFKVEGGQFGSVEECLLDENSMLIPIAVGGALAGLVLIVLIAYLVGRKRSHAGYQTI

B1: GDAP1-MYC fusion protein, wild-type (protein, UniProt Q8TB36 1-358)
chain: MAERQEEQRGSPPLRAEGKADAEVKLILYHWTHSFSSQKVRLVIAEKALKCEEHDVSLPLSEHNEPWFMRLNSTGEVPVLIHGENIICEATQIIDYLEQTFLDERTPRLMPDKESMYYPRVQHYRELLDSLPMDAYTHGCILHPELTVDSMIPAYATTRIRSQIGNTESELKKLAEENPDLQEAYIAKQKRLKSKLLDHDNVKYLKKILDELEKVLDQVETELQRRNEETPEEGQQPWLCGESFTLADVSLAVTLHRLKFLGFARRNWGNGKRPNLETYYERVLKRKTFNKVLGHVNNILISAVLPTAFRVAKKRAPKVLGTTLVVGLLAGVGYFAFMLFRKRLGSMILAFRPRPNYF
B2: GDAP1-MYC fusion protein, p.Thr157Pro (dominant clinical variant) (protein, UniProt Q8TB36 1-358)
chain: B1 chain with T157P
B3: GDAP1-MYC fusion protein, p.Arg161His (recessive clinical variant) (protein, UniProt Q8TB36 1-358)
chain: B1 chain with R161H

Biological target: T1, lysosome-associated membrane protein-1 (LAMP-1), endogenous (human (endogenous in HEK293T))
Assay: proximity ligation; Duolink In Situ-Fluorescence on fixed, methanol-permeabilised transfected HEK293T cells; GDAP1-MYC and endogenous LAMP-1; dots per cell counted

binding	Binder
binds	B1
binds	B2
binds	B3

Biological target: T1, lysosome-associated membrane protein-1 (LAMP-1), endogenous (human (endogenous in HEK293T))
Assay: co-IP; 1 mg of total lysate of transfected HEK293T cells (50 mM Tris HCl pH 7.4, 1.5 mM MgCl2, 5 mM EDTA, 1% Triton X-100, 50 mM NaF, 1 mM Na2VO3) incubated with the specific antibody 6-8 h at 4°C, then Protein G Sepharose overnight at 4°C; western blot; which antibody precipitated is not stated

binding	Binder
binds	B1
binds	B2
binds	B3
